{"source": "PubChem BioAssay AID540276", "about": "(National Center for Advancing Translational Sciences (NCATS), 2011)", "note": "Among all 300,000 compounds or so, about 5,400 (1.8%) were called active. Inconclusive means that the source gave no clear call. Such entries were picked first, then a sample of the others. Calls come from the whole dose curve; tested in HEK293 cells. Where the call is inconclusive, the potency comes from a doubtful curve fit. % is set by controls: 0 for no effect and ±100 for the full control effect; potency is the fitted concentration of half-maximal effect.", "data": [{"test": "qHTS for inhibitors of binding or entry into cells for Marburg Virus", "conditions": "Marburg virus pseudotyped entry inhibition, cell reporter; activity change, negative = inhibition: at 37.8 µM (top of the series) unless noted", "values": [{"smiles": "O=C(Nc1ccc(F)cc1)C(c1ccccc1)N1CCN(S(=O)(=O)c2c(F)cccc2F)CC1", "note": "(configuration not stated)", "Potency": "inconclusive: 14.1 µM [inhibitor, single point]"}, {"smiles": "CCOc1ccc(-c2nnc(-c3ccncc3)o2)cc1", "activity change, negative = inhibition": "inactive: -19.8%"}, {"smiles": "CSc1ccccc1NC(=O)Nc1cccc(Cl)c1Cl", "Potency": "inconclusive: 29.1 µM [activator, single point]"}, {"smiles": "COc1ccc(-c2nnn3c2nc(NCc2ccc(C)cc2)c2ccccc23)cc1", "activity change, negative = inhibition": "inactive: 9.6% [at 46.1 µM]"}, {"smiles": "CCOc1cc(/C=N/NC(=O)CSc2nncn2C)ccc1OCC(N)=O", "activity change, negative = inhibition": "inactive: 2.11%"}, {"smiles": "O=C(c1cc(-c2ccc(F)cc2)on1)N1CCCC1", "Potency": "inconclusive: 12.6 µM [inhibitor, single point]"}, {"smiles": "Cc1ccc(-c2nnn(CC(=O)N(Cc3cccs3)C(C(=O)NC3CCCC3)c3ccncc3)n2)cc1", "note": "(configuration not stated)", "Potency": "inconclusive: 29.1 µM [inhibitor, single point]"}, {"smiles": "CCOc1ccc(-c2cc(C(=O)NCCCN3CCCC3)c3ccccc3n2)cc1", "Potency": "inconclusive: 11.2 µM [inhibitor, partial curve, poor fit]"}, {"smiles": "CN=c1scc(-c2ccco2)n1/N=C/c1ccc(O)c(O)c1", "Potency": "inconclusive: 2.51 µM [inhibitor, full curve, poor fit]"}, {"smiles": "CCN(CC)S(=O)(=O)c1cccc(C(=O)Nc2ccc3c(c2)OCO3)c1", "Potency": "inconclusive: 0.631 µM [activator, full curve, poor fit]"}, {"smiles": "C=C(C)C(=O)Oc1ccc(N2C(=O)[C@@H]3C4C=CC(C4)[C@@H]3C2=O)cc1", "activity change, negative = inhibition": "inactive: -1.4%"}, {"smiles": "CC(C)(C)C(=O)Nc1ccc(NC(=O)c2ccco2)nc1", "Potency": "inconclusive: 1.26 µM [inhibitor, full curve, poor fit]"}, {"smiles": "Cc1ccc(S(=O)(=O)N(CC(=O)N/N=C/c2ccco2)c2cc(Cl)cc(Cl)c2)cc1", "Potency": "active: 15.8 µM"}, {"smiles": "CCOc1ccc(CN2CCN(Cc3ccc4cc(F)ccc4n3)CC2CCO)cc1", "note": "(configuration not stated)", "Potency": "active: 10 µM"}, {"smiles": "C/C(=N\\NC(=O)C(N)=O)c1ccc(Br)cc1", "Potency": "inconclusive: 11.2 µM [activator, single point]"}, {"smiles": "COCCCNC(=S)N1CCN(C(=O)C(=O)Nc2ccc(C(=O)OC)cc2)CC1", "Potency": "inconclusive: 6.31 µM [inhibitor, single point]"}, {"smiles": "CCOC(=O)c1c(-c2cccc([N+](=O)[O-])c2)cn2ccccc12", "Potency": "inconclusive: 10 µM [inhibitor, partial curve, poor fit]"}, {"smiles": "O=S(Cc1ccc(Br)cc1)Cc1nnc(SCc2c(Cl)cccc2Cl)n1-c1ccccc1", "note": "(configuration not stated)", "Potency": "inconclusive: 11.2 µM [inhibitor, partial curve, poor fit]"}, {"smiles": "Cc1ccc(S(=O)(=O)NCC(=O)NCC(=O)OCC(=O)N2CC(=O)Nc3ccccc32)cc1C", "activity change, negative = inhibition": "inactive: 13.3%"}, {"smiles": "CCn1c(=O)c2cc(C(=O)NCCCN3CCN(c4ccc(F)cc4)CC3)sc2c2ccccc21", "Potency": "inconclusive: 5.62 µM [inhibitor, single point]"}, {"smiles": "COc1cccc(NC(=O)CN2CCC(C)CC2)c1", "activity change, negative = inhibition": "inactive: 4.59%"}, {"smiles": "Clc1ccc(-c2ccnc(-n3cccc3)n2)s1", "Potency": "inconclusive: 5.62 µM [activator, single point]"}, {"smiles": "CCCCCOc1ccc(C(=O)CCC(=O)NC(C)c2ccc(S(N)(=O)=O)cc2)cc1", "note": "(configuration not stated)", "Potency": "inconclusive: 17.8 µM [inhibitor, partial curve, poor fit]"}, {"smiles": "N#C/C(=C\\c1ccc(O)cc1)c1nc2ccccc2o1", "Potency": "inconclusive: 2.82 µM [activator, partial curve, poor fit]"}, {"smiles": "CN(CC1CCCO1)S(=O)(=O)c1ccc(C(=O)Nc2nc(-c3ccccn3)cs2)cc1", "note": "(configuration not stated)", "Potency": "inconclusive: 20.6 µM [inhibitor, single point]"}, {"smiles": "CCOC(=O)N1CCN(CC(=O)c2c(C)[nH]c3ccccc23)CC1", "Potency": "inconclusive: 0.112 µM [inhibitor, full curve, poor fit]"}, {"smiles": "Cc1cc(C(=O)N(C)CC(=O)Nc2ccccc2C(F)(F)F)c(C)o1", "activity change, negative = inhibition": "inactive: 1.77%"}, {"smiles": "COC(=O)c1ccc(N2CCN(C)CC2)c(NC(=O)COc2ccc(OC)cc2)c1", "Potency": "inconclusive: 0.092 µM [inhibitor, full curve, poor fit]"}, {"smiles": "CC(Sc1ccc(Cl)cc1)C(=O)Nc1ccc2c(c1)OCO2", "note": "(configuration not stated)", "Potency": "inconclusive: 35.5 µM [inhibitor, single point]"}, {"smiles": "C=CCn1c(C)cc(C(=O)COC(=O)c2ccc3c(c2)NC(=O)CS3)c1C", "Potency": "active: 11.2 µM"}, {"smiles": "CC1(C)[C@H]2CC=C(CN3CCC(N4CCC(C(=O)N5CCCC5)CC4)CC3)[C@@H]1C2", "activity change, negative = inhibition": "inactive: -29.7% [at 46.1 µM]"}, {"smiles": "CC[C@H](C)NC(=O)c1ccc(Cn2c(=S)[nH]c3c([nH]c4ccc(OC)cc43)c2=O)cc1", "Potency": "inconclusive: 4.61 µM [activator, single point]"}, {"smiles": "O=C(O)c1occc1CSc1ccccc1", "activity change, negative = inhibition": "inactive: -10.3%"}, {"smiles": "Cc1c(C(=O)N2CCOCC2)sc2nc(-c3ccccc3)cn12", "Potency": "inconclusive: 0.398 µM [activator, full curve, poor fit]"}, {"smiles": "COc1ccc2c(c1)C(c1ccc(N(CCCl)CCCl)cc1)=NCC2", "Potency": "inconclusive: 10 µM [inhibitor, partial curve, poor fit]"}, {"smiles": "O=C(Nc1cccc(-c2nc3ncccc3o2)c1)c1sc2cc(Cl)ccc2c1Cl", "Potency": "inconclusive: 29.1 µM [inhibitor, single point]"}, {"smiles": "Cc1sc(NC(=O)/C=C/c2ccc3c(c2)OCO3)nc1-c1ccccc1", "Potency": "inconclusive: 7.94 µM [inhibitor, partial curve, poor fit]"}, {"smiles": "O=C(CO)N/N=C/c1c2ccccc2cc2ccccc12", "Potency": "inconclusive: 10 µM [inhibitor, partial curve, poor fit]"}, {"smiles": "OC(c1ccccc1)c1nc2ccccc2[nH]1", "note": "(configuration not stated)", "activity change, negative = inhibition": "inactive: 26.4%"}, {"smiles": "O=C(COC(=O)c1c2c(nc3ccccc13)/C(=C/c1cccc([N+](=O)[O-])c1)CCC2)NC1CCS(=O)(=O)C1", "note": "(configuration not stated)", "Potency": "inconclusive: 11.2 µM [inhibitor, partial curve, poor fit]"}, {"smiles": "NC(=O)c1cn(-c2ccccc2)nc1-c1cccnc1", "activity change, negative = inhibition": "inactive: 5.89%"}, {"smiles": "COc1ccccc1NS(=O)(=O)c1cccc(C(=O)NCC2(N3CCCCC3)CCCCC2)c1", "Potency": "inconclusive: 35.5 µM [inhibitor, single point]"}]}]}
